No constants are given. Whether binding was seen depends on the method and setting. A result given as binding can be weak or reduced; the word gives no strength.
Target: JrCCR4-GST recombinant protein (walnut (Juglans regia L.))
Test: pull-down; His-tagged and GST-tagged proteins mixed at a ratio of 1:1, purified with Glutathione-Sepharose Resin, Western blotting; both purified

By UniProt entry, the sequences of proteins in these tests, tags left out. Where a name states a change or a piece, a line headed by the entry shows the natural chain unless it says otherwise.
UniProt A0A2I4H1P2: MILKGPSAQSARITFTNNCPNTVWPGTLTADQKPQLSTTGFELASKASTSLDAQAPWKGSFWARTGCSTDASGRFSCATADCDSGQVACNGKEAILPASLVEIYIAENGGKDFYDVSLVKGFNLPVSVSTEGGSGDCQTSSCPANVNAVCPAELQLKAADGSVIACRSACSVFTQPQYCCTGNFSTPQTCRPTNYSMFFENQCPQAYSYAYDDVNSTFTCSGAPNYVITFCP

binding: binds
Substance: JrTLP1b with HIS tag, recombinant protein (from UniProt A0A2I4H1P2)
